Laboratory results from paper PMC8961497.
Results are given in words; binding and its absence hold for the method and conditions named. For some assays here: Binding seen in cells or lysates may run through a third protein. Some entries that bind do so weakly or less than the wild type. For some assays here: Sequences can lack the tags named with a protein.

T1: ETS-domain containing protein (ELK1), endogenous in HGECs (human (endogenous in HGECs)) (UniProt P19419)
T1 sequence: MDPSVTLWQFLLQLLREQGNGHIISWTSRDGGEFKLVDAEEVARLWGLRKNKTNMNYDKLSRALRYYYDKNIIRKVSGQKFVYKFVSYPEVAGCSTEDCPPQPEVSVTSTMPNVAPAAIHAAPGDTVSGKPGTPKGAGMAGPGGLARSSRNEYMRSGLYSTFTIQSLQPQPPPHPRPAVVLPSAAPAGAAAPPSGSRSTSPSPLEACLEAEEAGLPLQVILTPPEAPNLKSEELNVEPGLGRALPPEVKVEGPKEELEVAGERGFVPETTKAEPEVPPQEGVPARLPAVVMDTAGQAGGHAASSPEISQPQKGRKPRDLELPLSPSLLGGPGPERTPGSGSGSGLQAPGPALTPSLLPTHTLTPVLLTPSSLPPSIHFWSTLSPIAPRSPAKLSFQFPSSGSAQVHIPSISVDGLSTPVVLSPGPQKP

T2: GST-ELK1 fusion protein (UniProt P19419)
T2 sequence: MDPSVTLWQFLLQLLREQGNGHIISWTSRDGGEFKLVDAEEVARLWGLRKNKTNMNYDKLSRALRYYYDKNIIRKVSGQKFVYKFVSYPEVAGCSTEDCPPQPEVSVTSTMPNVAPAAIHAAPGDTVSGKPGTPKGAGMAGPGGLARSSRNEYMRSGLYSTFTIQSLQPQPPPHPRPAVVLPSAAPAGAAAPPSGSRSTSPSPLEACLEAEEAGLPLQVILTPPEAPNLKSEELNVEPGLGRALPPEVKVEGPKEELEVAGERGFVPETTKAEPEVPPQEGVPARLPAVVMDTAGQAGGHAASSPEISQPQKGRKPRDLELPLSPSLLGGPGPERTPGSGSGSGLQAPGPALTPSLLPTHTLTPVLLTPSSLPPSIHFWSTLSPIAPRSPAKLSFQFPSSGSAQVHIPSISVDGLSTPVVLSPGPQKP

B1: SET domain-containing protein 8 (SETD8), endogenous in HGECs (protein, UniProt Q9NQR1 1-393)
chain: MGEGGAAAALVAAAAAAAAAAAAVVAGQRRRRLGRRARCHGPGRAAGGKMSKPCAVEAAAAAVAATAPGPEMVERRGPGRPRTDGENVFTGQSKIYSYMSPNKCSGMRFPLQEENSVTHHEVKCQGKPLAGIYRKREEKRNAGNAVRSAMKSEEQKIKDARKGPLVPFPNQKSEAAEPPKTPPSSCDSTNAAIAKQALKKPIKGKQAPRKKAQGKTQQNRKLTDFYPVRRSSRKSKAELQSEERKRIDELIESGKEEGMKIDLIDGKGRGVIATKQFSRGDFVVEYHGDLIEITDAKKREALYAQDPSTGCYMYYFQYLSKTYCVDATRETNRLGRLINHSKCGNCQTKLHDIDGVPHLILIASRDIAAGEELLYDYGDRSKASIEAHPWLKH
B2: His-SETD8 fusion protein (protein, UniProt Q9NQR1 1-393)
chain: MGEGGAAAALVAAAAAAAAAAAAVVAGQRRRRLGRRARCHGPGRAAGGKMSKPCAVEAAAAAVAATAPGPEMVERRGPGRPRTDGENVFTGQSKIYSYMSPNKCSGMRFPLQEENSVTHHEVKCQGKPLAGIYRKREEKRNAGNAVRSAMKSEEQKIKDARKGPLVPFPNQKSEAAEPPKTPPSSCDSTNAAIAKQALKKPIKGKQAPRKKAQGKTQQNRKLTDFYPVRRSSRKSKAELQSEERKRIDELIESGKEEGMKIDLIDGKGRGVIATKQFSRGDFVVEYHGDLIEITDAKKREALYAQDPSTGCYMYYFQYLSKTYCVDATRETNRLGRLINHSKCGNCQTKLHDIDGVPHLILIASRDIAAGEELLYDYGDRSKASIEAHPWLKH

Legend:
[1] = biological target: T1, ETS-domain containing protein (ELK1), endogenous in HGECs (human (endogenous in HGECs)); experiment: co-IP; endogenous IP from HGEC lysates with antibodies against bach1, SETD8, ELK1 or IgG at 4 °C overnight, protein Dynabeads 6 h at 4 °C, washed 3 times with RIPA, Western blot
GST-ELK1 fusion protein = biological target: T2, GST-ELK1 fusion protein; experiment: pull-down; bought His-SETD8 and GST-ELK1 mixed 12 h at 4 °C in GST binding buffer, anti-His or anti-GST beads for 4 h more, washed three times, Western blot; both purified

| Binder | binding [1] | binding (GST-ELK1 fusion protein) |
| --- | --- | --- |
| B1 | binds | – |
| B2 | – | binds |
